Test results published in article PMC6925144, “A prospective compound screening contest identified broader inhibitors for Sirtuin 1” (Scientific Reports, 2019).
Whole data set: some 3,200 compounds, median “TSA(with NAD+) / Primary screening (TSA) / delta Tm (K)” near -0.04, cut for the highest 2% near 0.37. The list shows a part of the results.

Amino acid sequences for entries named in this document (tags omitted). Residues count along the entry.
UniProt Q96EB6, 2-747 limits assumed: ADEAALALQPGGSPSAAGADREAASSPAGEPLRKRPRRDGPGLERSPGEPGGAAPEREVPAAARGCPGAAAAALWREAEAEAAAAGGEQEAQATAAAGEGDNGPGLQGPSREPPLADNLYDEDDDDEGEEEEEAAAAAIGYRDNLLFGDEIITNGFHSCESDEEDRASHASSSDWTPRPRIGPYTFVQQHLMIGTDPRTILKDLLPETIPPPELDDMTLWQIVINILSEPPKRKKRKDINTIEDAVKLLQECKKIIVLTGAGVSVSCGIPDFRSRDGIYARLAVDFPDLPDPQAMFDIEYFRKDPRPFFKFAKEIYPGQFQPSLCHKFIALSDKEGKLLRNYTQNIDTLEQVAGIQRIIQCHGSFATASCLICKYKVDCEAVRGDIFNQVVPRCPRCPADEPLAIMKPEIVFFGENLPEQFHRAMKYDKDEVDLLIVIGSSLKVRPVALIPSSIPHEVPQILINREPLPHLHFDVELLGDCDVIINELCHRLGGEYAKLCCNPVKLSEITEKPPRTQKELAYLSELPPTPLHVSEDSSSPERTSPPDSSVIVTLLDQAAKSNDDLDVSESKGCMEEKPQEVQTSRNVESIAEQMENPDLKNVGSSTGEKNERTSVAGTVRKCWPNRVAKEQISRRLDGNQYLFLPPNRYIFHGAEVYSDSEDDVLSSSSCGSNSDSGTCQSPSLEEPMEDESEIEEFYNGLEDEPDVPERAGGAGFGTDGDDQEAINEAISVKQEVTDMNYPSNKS

biological target: NAD-dependent deacetylase Sirtuin 1 (human, UniProt Q96EB6); test: primary screen, delta tm; design: single well (n = 1, as 'the same TSA'); settings: 10 µM

| SMILES | TSA(with NAD+) / Primary screening (TSA) / delta Tm (K) |
| --- | --- |
| CCN(CC(=O)NCc1ccc(F)cc1)Cc1ccc(C(=O)Nc2ccccc2)cc1 | -0.12 |
| Cc1ccc([N+](=O)[O-])c(Oc2nc(CN3CCOCC3)nc3scc(-c4cccs4)c23)c1 | -0.21 |
| Cc1c(C(=O)O)cnc2nc3ccccc3n12 | -0.21 |
| CN(C(=O)CCN/C(O)=C1/N=CC=CC1=O)c1ccc2ccccc2c1 | 0.09 |
| Cc1cccc(NC(=O)CN2CCN(CC3CCCCC3)CC2)c1C | 0.09 |
| NS(=O)(=O)c1ccc(C(=O)Nc2ccc3c(c2)-c2ccccc2C3)cc1 | 0.68 |
| COc1ccc(C(=O)OC(C)C(N)=O)cc1F (stereo not shown) | -0.02 |
| CNS(=O)(=O)c1ccc(CCC(=O)Nc2ccccc2Cc2ccccc2)cc1 | 0.07 |
| CC(=O)N1N=C(c2ccc(O)cc2)CC1c1ccccc1 (stereo not shown) | 0.36 |
| CC(C)(CNc1ncnc2ccsc12)C(N)=O | -0.08 |
| Cc1nc2ccccc2c2c(NC(=O)c3cnccn3)c3ccccc3n12 | -0.13 |
| COc1ccc(C(N)=O)cc1NC(=O)c1nn(-c2ccc(C)c(F)c2)c2c1CCCC2 | 0.13 |
| COc1ccc2cc(CNc3ncnc4[nH]ncc34)ccc2c1 | -0.01 |
| COc1cccc(C(=O)C2=C(O)C(=O)N(CCCN3CCOCC3)C2c2cccc([N+](=O)[O-])c2)c1 (stereo not shown) | 0.05 |
| O=S1(=O)CC(O)C(N2CCN(c3ncnc4c3oc3ccccc34)CC2)C1 (stereo not shown) | -0.01 |
| CCOc1ccc(NC(=O)COc2ccc(C(=O)NC34CC5CC(CC(C5)C3)C4)cc2OC)cc1 | -0.06 |
| Cc1cnc(N2CCC(Oc3ccnc(C(N)=O)c3)CC2)s1 | -0.16 |
| Cc1ccc(-c2csc(NC(=O)c3ccnc4c(C(N)=O)cnn34)n2)c(C)c1 | -0.01 |
| Cc1ccccc1CC(=O)Nc1ccc(N2CCN(Cc3ccccc3)CC2)cc1 | 0.09 |
| COc1cccc2cc(C(=O)C3=C(O)C(=O)N(CCN4CCOCC4)C3c3ccc(C)cc3)oc12 (stereo not shown) | 0.07 |

| SMILES | TSA(with NAD+) / Primary screening (TSA) / delta Tm (K) |
| --- | --- |
| O=C(Nc1cccc2ccccc12)N1CC=C(c2ccccc2)CC1 | -0.09 |
| CNC(=O)c1c(-c2ccccc2)n(C)c2ccccc12 | -0.05 |
| CCOc1ccc(C2C(C(=O)c3ccco3)=C(O)C(=O)N2CCCN2CCOCC2)cc1OC (stereo not shown) | 0.12 |
| CC1CCCCC1NC(=O)CN1C(=O)NC2(CCc3ccccc3C2)C1=O (stereo not shown) | -0.09 |
| NCCc1nc2cc(C(=O)O)ccc2[nH]1 | -0.13 |
| Cc1nc(-c2ccc(NC(=O)[C@H](C)NC(=O)OCc3ccccc3)cc2)cs1 | -0.11 |
| CN(CC(=O)Nc1ccc(Cl)c(C(F)(F)F)c1)C(=O)COC(=O)Cc1coc2cc(O)ccc12 | 0.32 |
| CCCCC(NC1=NS(=O)(=O)c2ccccc21)C(=O)NCc1ccc(-c2ccc(O)cc2)cc1 (stereo not shown) | 0.12 |
| COc1cc(/C=N/NC(=O)c2cc3c(s2)CCCC3)ccc1OS(=O)(=O)c1cc(C)ccc1C | 0.09 |
| O=C(O)c1ccc2c(c1)C(=O)c1ccccc1-2 | -0.05 |
| Nc1nc(Cl)cc(NC2CCCC2)n1 | -0.02 |
| Cc1ccc(C23CC4CC(CC(C(=O)OCC(=O)N5c6ccccc6NC(=O)C5(C)C)(C4)C2)C3)cc1 | -0.23 |
| O=C(O)CC(S)C(=O)O (stereo not shown) | -0.04 |
| COc1ccc(C=C2C(=O)NC(=S)NC2=O)c(OC)c1 | -0.09 |
| O=C(NNC(=O)C12CC3CC(CC(C3)C1)C2)c1ccc(NS(=O)(=O)c2ccc3c(c2)OCCO3)cc1 | -0.08 |
| Cc1cnc2c(S(=O)(=O)N3CCN(CC(=O)Nc4ccccc4OC(F)F)CC3)cccc2c1 | 0.13 |
| Cc1nc2c(C(N)=O)ncn2c(C)c1CCC(=O)Nc1ccc(F)c(C(N)=O)c1 | 0.09 |
| COc1ccc(C(N)=O)cc1NC(=O)c1nc2nc(C)cc(C)n2n1 | -0.11 |
| O=C(CCc1cccs1)Nc1ccc(-c2nnc3n2CCCCC3)cc1 | -0.11 |
| O=C1/C(=C/c2cnn(-c3ccccc3)c2)Oc2cc(O)ccc21 | 0.99 |

3 structures out of the list, arranged by heavy-atom count, rising:

| SMILES | TSA(with NAD+) / Primary screening (TSA) / delta Tm (K) |
| --- | --- |
| O=C(O)CC(S)C(=O)O (stereo not shown) | -0.04 |
| O=C(O)c1ccc2c(c1)C(=O)c1ccccc1-2 | -0.05 |
| O=C(NNC(=O)C12CC3CC(CC(C3)C1)C2)c1ccc(NS(=O)(=O)c2ccc3c(c2)OCCO3)cc1 | -0.08 |

The list goes on.

| SMILES | TSA(with NAD+) / Primary screening (TSA) / delta Tm (K) |
| --- | --- |
| CCOc1ccc(C2C(C(=O)c3cccs3)=C(O)C(=O)N2CCCN2CCOCC2)cc1OC (stereo not shown) | 0.08 |
| COc1cccc(NC(=S)Nc2cccc(S(=O)(=O)N(C)c3ccccc3)c2)c1 | 0.11 |
| NC(=O)c1ccc(NC(=O)COC(=O)CCC(=O)c2ccc(Cl)cc2)cc1 | -0.18 |
| COc1cc(CN(C)C(=O)Cc2n[nH]c(=O)c3ccccc23)ccc1OCc1ccccc1 | -0.14 |
| Cc1nc(C(C)NC(=O)c2ccc[nH]2)sc1C(=O)O (stereo not shown) | -0.11 |
| Cc1ccc(-c2noc(C(C)N3CCN(c4ncnc5cc(Cl)ccc45)CC3)n2)cc1 (stereo not shown) | 0.02 |
| Cc1ccc(Oc2ccc(NCc3nnc(C4CCC4)o3)cc2)nn1 | 0.06 |
| N#Cc1cnn(C(=O)C2=NOC(c3ccccc3)C2)c1N (stereo not shown) | -0.04 |
| CCCCOCCN | -0.05 |
| Cc1nc(C)c(C(C)NC(=O)CSC(=S)N2CCC(C)CC2)s1 (stereo not shown) | 0.02 |
| O=C([O-])CP(=O)([O-])C(=O)[O-] | -0.16 |
| O=c1[nH]cccc1O | -0.22 |
| Cc1sc(NC(=O)N2CCN(Cc3nc(-c4ccc(Cl)cc4)no3)CC2)c(C#N)c1C | -0.01 |
| CCOc1ccccc1/C=C1/Oc2cc(O)ccc2C1=O | -0.01 |
| O=C1CC2(CCCCC2)CC(=O)C1=CNCC1COc2ccccc2O1 (stereo not shown) | -0.38 |
| O=C(Nc1ccccc1Oc1ccccc1)C1COc2ccccc2O1 (stereo not shown) | -0.21 |
| Cc1ccc(N(C)S(=O)(=O)c2cccc(C(=O)Nc3ccccc3C)c2)cc1 | 0.06 |
| CCCOc1cccc(C2C(C(=O)c3cccs3)=C(O)C(=O)N2CCCN2CCOCC2)c1 (stereo not shown) | 0.01 |
